# Experimental data: PMC12040169 (PLOS Biology, 2025)
# Some of the results follow.
# System: T1, CTL2-GFP (C. trachomatis L2/434/Bu, GFP-expressing)
# T1 construct: L2/434/Bu, GFP-expressing
# Design: species or system HeLa; Intracellular C. trachomatis growth in HeLa cells, bulk GFP fluorescence relative to DMSO
# Conditions: bulk GFP, single well; 28.5 h, 10 µM; inhibitor
row,SMILES,% of control remaining
1,CN1CCC(N2CCN(C(=O)NCCN3CCOCC3)CC2)CC1 [CBK155891],99.2883%
2,CC(C)(C)c1ccc(C(=O)N2CC(C(=O)O)C2)cc1 [CBK008670],97.7972%
3,CCN1CCN(c2nc(N)c3ccccc3n2)CC1 [CBK268561C],105.312%
4,COc1cc(NC(=O)CN2C(=O)c3ccc([N+](=O)[O-])cc3C2=O)c(C(=O)O)cc1OC [CBK265109],100%
5,O=C(Cc1ccsc1)Nc1snnc1-c1ccc(Cl)cc1 [CBK153243],93.252%
6,CCN(CC)CCN1C(=O)CCC2(c3ccccc3)CCC(=O)C=C12 (stereo not shown) [CBK023010C],133.031%
7,COc1ccccc1N1CCN(CCCCNS(=O)(=O)c2ccc(Cl)c(Cl)c2)CC1 [CBK074837],113.31%
8,Cc1ccc2cc(C)c3nn(CC(=O)NC4CC4)c(=O)n3c2c1C [CBK283822],116.382%
9,Cc1ccccc1N1C(=O)c2ccc(C(=O)OCC(=O)c3ccc(Cl)c([N+](=O)[O-])c3)cc2C1=O [CBK264108],100%
10,O=C1CC(c2ccc(F)cc2)Cc2[nH]c(=O)c(C(=O)O)cc21 (stereo not shown) [CBK287200],149.02%
11,COc1ccc(CCN(Cc2ccc(Cl)c(Cl)c2)C(=O)NCc2ccc(C#N)cc2)cc1OC [CBK158771],123.433%
12,CC(C)c1nc(C(=O)NCC2CCCN(c3ncccn3)C2)cs1 (stereo not shown) [CBK304351],88.2077%
13,CC(C)Cn1ncc2cc(C(=O)Nc3ccnn3C(C)C)cnc21 [CBK304938],63.9079%
14,Cc1ccc(NC(=S)N2CCN(C/C=C/c3ccccc3)CC2)cc1 [CBK264574],100%
15,CS(=O)(=O)N1CC2(CCN(C(=O)[C@@H]3CNC[C@H]3c3ccccc3)CC2)c2ccccc21 [CBK022572],103.172%
16,Cc1ccc(N(CC(=O)N/N=C/c2ccc(Cl)cc2)S(=O)(=O)c2ccccc2)cc1 [CBK262182],95.5016%
17,Cc1nc2cccnc2n1CCNC(=O)Cc1cccs1 [CBK283592],109.405%
18,Cc1ncccc1COC(=O)N1Cc2ccccc2C1 [CBK200138],103.491%
19,CSc1nnc(CC2CCN(C(=O)c3cc(C)c(C)cc3C)CC2)n1C [CBK307467],149.065%
20,CC(=O)C1=C(O)C(=O)N(CCN2CCOCC2)C1c1cccc([N+](=O)[O-])c1 (stereo not shown) [CBK264568],100%

# A draw from above in order of length of the SMILES, rising:
row,SMILES,% of control remaining
13,CC(C)Cn1ncc2cc(C(=O)Nc3ccnn3C(C)C)cnc21 [CBK304938],63.9079%
19,CSc1nnc(CC2CCN(C(=O)c3cc(C)c(C)cc3C)CC2)n1C [CBK307467],149.065%
9,Cc1ccccc1N1C(=O)c2ccc(C(=O)OCC(=O)c3ccc(Cl)c([N+](=O)[O-])c3)cc2C1=O [CBK264108],100%

# (further entries)

row,SMILES,% of control remaining
1,COc1ccc(-c2nccnc2N[C@@H](CO)C(C)C)cc1 [CBK089040],84.951%
2,CC1CCN(CC(=O)NC2CCN(C(C)c3ccccc3)CC2)CC1 (stereo not shown) [CBK284017],124.539%
3,O=C(N/N=C/c1c(Cl)cccc1Cl)c1cc(Br)ccc1O [CBK262022],129.012%
4,Cc1csc(NC(=O)C2CC(=O)N(C3CCCC3)C2)n1 (stereo not shown) [CBK175501],117.71%
5,OC1CCN(Cc2ccc(-c3ccc(F)cc3F)o2)CC1 [CBK283200],119.925%
6,Cc1nc(C(=O)N2CCn3nc(C(O)Cc4ccccc4)cc3C2)cs1 (stereo not shown) [CBK307214],149.934%
7,O=C(COc1ccccc1)N/N=C/c1ccc[nH]1 [CBK261281],116.187%
8,CS(=O)(=O)N1CCC(c2nc(-c3ccc(C(F)(F)F)cc3)c3ccccn23)CC1 [CBK036006],100%
9,Cc1nc2c(C)cccc2cc1C(=O)NCCCc1ccccn1 [CBK282148],140.57%
10,Cc1nc2c(c(=O)[nH]1)CCN(CCC(C)c1ccccc1)C2 (stereo not shown) [CBK282387],170.244%
11,O=C(COc1ccc(S(=O)(=O)N2CCCCC2)cc1)N1CCC(Cc2ccccc2)CC1 [CBK268547],129.434%
12,Cc1cc2c(cc1Cl)C(=O)CC1(CCN(C(=O)C3CC(=O)OC3(C)C)CC1)O2 (stereo not shown) [CBK156514],104.018%
13,COc1cc(NC(=O)N(C)C2CCN(C)C2)cc(OC)c1OC (stereo not shown) [CBK156022],164.495%
14,Cn1c(=O)n(C)c2cc(NC(=O)CSc3nc(Nc4ccccc4)nc(N4CCOCC4)n3)ccc21 [CBK269041],68.1719%
15,O=C1NC/C=C/CC2(CCN(c3ncccn3)CC2)C(=O)NCCOc2ccccc21 [CBK292081],178.046%
16,O=C1c2ccccc2C(Nc2cccnc2)N1c1ccccn1 (stereo not shown) [CBK113239],100.825%
17,COCCn1cc(C(=O)N2CCOC3CCCC32)c2ccccc21 (stereo not shown) [CBK305156],106.164%
18,O=C(O)c1ccc(S(=O)(=O)Nc2ccc(OC3CCCC3)cc2)cc1 [CBK296658],113.198%
19,CN(C)S(=O)(=O)Nc1ccc(Cc2ccncc2)cc1 [CBK265011],124.844%
20,Cc1ccc(Cn2cnc3c(nnn3-c3ccc(C)cc3)c2=O)cc1 [CBK287502],125.609%
